Results: publication PMC7010746

By UniProt entry, the sequences of proteins in these tests, tags left out. Residues count along the entry.
UniProt Q92793: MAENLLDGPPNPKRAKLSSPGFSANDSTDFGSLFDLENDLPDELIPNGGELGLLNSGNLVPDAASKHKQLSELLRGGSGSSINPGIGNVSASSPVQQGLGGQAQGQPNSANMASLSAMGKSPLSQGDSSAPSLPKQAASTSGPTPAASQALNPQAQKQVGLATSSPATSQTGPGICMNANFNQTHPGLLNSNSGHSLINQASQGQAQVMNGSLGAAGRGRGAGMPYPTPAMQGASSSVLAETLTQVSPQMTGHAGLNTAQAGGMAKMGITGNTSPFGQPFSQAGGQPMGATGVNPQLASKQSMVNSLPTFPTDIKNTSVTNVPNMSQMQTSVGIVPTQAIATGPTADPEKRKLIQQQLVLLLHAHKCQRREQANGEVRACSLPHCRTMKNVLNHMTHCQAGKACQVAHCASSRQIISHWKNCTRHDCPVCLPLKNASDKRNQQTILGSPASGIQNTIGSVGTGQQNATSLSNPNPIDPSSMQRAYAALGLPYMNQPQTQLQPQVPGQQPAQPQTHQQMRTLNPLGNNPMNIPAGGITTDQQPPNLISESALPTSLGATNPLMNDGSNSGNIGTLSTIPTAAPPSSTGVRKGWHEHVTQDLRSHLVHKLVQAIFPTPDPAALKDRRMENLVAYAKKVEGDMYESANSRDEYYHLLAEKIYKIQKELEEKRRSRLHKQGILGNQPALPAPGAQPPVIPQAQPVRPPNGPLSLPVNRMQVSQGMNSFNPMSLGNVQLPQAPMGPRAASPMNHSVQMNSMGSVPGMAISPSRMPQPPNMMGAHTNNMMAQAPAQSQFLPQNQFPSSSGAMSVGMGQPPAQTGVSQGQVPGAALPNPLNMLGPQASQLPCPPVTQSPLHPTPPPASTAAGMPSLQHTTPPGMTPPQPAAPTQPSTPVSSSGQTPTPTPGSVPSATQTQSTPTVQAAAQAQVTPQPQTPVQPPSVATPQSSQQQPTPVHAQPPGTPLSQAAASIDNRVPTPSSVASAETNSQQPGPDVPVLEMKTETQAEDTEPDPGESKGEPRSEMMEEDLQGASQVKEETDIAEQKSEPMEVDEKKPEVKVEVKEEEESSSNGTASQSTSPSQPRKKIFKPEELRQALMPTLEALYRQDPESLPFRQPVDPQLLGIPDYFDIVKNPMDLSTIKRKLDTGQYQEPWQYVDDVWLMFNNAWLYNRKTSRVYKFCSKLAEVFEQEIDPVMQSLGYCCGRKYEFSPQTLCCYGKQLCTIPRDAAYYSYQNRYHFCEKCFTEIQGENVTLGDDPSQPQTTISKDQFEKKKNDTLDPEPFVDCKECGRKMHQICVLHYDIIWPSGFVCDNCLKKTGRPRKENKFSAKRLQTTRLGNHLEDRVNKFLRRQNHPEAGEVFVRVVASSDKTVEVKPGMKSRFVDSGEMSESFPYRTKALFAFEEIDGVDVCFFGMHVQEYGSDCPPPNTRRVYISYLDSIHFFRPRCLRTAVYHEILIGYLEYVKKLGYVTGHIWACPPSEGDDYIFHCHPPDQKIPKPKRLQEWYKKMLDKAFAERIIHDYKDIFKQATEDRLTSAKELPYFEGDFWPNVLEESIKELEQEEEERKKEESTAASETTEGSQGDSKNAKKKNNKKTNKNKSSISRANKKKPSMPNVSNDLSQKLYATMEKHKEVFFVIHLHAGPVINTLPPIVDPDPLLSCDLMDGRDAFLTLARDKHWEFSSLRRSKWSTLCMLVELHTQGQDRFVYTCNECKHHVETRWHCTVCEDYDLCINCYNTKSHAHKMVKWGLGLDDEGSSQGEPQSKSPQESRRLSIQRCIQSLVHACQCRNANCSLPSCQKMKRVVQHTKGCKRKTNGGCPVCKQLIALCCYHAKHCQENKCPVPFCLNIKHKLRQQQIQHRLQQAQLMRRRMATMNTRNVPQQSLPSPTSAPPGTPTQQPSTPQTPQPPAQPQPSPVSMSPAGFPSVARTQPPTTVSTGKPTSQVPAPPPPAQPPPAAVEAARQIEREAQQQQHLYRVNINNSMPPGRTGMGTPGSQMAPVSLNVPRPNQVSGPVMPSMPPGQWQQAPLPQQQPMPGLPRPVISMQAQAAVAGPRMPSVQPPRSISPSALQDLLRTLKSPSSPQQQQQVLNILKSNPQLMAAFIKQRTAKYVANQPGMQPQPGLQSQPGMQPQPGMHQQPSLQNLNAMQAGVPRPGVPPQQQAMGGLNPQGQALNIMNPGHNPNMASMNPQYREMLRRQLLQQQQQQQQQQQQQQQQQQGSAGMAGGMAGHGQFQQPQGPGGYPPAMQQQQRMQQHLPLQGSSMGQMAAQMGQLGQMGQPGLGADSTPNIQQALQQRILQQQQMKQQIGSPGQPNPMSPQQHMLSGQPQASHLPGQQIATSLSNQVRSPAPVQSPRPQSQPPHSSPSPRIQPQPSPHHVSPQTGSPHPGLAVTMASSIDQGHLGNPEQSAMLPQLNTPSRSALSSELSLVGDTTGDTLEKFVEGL
UniProt Q09472: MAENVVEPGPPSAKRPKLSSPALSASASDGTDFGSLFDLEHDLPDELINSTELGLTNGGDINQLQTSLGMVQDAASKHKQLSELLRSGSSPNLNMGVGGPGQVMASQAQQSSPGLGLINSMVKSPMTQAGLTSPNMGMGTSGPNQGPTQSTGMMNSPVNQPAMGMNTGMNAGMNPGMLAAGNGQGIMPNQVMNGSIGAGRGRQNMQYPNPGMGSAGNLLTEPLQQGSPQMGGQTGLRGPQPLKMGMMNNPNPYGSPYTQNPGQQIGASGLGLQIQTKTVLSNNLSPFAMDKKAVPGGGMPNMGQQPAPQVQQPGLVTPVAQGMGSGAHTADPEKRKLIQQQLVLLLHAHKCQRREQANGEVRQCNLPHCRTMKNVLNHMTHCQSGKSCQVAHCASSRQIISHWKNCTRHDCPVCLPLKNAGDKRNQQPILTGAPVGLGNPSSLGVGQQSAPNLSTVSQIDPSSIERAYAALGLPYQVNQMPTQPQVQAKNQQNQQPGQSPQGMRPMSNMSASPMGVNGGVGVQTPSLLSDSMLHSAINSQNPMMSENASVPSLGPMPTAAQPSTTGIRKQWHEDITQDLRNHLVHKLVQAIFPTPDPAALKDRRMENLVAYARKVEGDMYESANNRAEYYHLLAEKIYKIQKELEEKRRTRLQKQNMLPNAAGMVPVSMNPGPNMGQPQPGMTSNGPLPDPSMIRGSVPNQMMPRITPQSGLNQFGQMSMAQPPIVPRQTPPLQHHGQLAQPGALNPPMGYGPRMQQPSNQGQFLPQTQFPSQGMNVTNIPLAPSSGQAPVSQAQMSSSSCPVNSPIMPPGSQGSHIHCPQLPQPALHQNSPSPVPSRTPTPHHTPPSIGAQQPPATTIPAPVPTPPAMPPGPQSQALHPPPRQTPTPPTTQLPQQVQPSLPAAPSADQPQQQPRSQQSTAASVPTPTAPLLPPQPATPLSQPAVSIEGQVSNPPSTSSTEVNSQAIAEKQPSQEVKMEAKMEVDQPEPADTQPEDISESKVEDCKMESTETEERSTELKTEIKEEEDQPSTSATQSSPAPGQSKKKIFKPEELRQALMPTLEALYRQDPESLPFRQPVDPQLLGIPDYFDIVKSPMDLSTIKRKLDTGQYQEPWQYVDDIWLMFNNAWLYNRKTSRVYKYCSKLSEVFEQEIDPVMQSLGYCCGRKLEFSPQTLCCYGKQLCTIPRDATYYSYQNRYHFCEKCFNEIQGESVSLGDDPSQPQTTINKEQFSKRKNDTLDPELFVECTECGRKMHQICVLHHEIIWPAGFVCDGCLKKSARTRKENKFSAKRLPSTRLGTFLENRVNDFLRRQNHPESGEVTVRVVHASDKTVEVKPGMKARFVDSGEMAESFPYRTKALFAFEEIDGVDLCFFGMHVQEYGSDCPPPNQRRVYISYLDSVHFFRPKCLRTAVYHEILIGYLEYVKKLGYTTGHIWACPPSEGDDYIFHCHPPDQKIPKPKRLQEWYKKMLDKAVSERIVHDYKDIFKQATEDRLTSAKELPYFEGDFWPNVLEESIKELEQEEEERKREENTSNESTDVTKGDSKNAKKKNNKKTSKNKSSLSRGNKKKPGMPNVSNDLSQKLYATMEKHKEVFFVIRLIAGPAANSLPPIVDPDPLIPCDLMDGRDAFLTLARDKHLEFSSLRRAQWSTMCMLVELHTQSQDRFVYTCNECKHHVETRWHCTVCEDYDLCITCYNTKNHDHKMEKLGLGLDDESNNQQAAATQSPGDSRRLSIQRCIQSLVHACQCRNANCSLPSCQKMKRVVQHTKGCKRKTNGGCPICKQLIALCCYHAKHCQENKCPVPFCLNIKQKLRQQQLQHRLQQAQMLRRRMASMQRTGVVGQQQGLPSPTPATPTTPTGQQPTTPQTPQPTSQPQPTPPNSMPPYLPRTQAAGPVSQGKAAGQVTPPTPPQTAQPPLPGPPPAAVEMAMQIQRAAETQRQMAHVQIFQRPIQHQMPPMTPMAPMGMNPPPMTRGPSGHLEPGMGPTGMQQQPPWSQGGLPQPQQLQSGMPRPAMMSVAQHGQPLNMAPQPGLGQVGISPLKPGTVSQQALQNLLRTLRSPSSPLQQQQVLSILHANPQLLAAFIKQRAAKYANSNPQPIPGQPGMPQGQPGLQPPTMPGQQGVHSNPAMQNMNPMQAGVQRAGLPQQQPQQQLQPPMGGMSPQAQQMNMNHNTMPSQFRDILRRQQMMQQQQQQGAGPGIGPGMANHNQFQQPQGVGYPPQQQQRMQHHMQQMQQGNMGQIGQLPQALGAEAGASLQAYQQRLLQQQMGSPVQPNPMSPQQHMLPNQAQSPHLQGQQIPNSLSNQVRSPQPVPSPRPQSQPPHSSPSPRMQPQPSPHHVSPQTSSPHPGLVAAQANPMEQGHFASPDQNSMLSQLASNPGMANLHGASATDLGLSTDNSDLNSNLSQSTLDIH
UniProt O14980: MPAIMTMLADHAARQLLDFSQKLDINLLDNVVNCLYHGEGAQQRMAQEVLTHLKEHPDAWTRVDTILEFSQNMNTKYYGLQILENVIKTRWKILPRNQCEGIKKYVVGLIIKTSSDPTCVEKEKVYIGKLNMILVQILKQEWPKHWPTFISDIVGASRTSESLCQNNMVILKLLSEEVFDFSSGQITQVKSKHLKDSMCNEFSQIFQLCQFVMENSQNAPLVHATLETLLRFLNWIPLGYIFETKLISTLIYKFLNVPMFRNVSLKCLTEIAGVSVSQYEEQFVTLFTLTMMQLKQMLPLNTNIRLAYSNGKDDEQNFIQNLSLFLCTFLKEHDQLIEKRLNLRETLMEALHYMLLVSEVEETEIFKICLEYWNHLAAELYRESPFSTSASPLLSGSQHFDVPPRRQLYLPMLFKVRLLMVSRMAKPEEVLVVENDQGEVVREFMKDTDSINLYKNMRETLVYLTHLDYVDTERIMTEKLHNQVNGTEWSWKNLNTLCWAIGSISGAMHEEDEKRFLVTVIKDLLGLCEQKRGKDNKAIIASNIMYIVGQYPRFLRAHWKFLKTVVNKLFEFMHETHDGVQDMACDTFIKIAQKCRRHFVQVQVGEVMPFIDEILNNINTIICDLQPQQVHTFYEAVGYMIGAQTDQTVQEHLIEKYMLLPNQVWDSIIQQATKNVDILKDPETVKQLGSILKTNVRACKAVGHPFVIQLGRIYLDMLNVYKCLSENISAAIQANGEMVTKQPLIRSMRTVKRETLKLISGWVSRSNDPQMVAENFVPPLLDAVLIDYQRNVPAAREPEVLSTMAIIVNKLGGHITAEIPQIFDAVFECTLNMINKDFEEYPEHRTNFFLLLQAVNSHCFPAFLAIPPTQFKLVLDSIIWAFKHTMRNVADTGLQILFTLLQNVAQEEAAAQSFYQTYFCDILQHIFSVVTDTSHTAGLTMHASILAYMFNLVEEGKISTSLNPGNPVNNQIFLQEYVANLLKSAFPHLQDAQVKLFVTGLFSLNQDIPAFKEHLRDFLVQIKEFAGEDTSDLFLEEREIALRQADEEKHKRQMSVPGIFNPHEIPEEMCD
UniProt O43837, residues 35-385: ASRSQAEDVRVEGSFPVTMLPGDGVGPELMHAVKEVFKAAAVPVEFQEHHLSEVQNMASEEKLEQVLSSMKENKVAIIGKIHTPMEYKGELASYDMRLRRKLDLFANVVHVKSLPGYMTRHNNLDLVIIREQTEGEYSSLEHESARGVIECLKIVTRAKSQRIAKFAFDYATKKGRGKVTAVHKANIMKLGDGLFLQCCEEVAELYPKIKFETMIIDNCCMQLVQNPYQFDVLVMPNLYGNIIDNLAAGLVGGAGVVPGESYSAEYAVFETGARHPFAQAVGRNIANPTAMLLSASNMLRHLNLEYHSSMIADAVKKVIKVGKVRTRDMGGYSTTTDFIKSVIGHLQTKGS

T1: SIRT2 (isoform 1) tagged at its C-terminus with GFP (UniProt Q8IXJ6)
T1 sequence: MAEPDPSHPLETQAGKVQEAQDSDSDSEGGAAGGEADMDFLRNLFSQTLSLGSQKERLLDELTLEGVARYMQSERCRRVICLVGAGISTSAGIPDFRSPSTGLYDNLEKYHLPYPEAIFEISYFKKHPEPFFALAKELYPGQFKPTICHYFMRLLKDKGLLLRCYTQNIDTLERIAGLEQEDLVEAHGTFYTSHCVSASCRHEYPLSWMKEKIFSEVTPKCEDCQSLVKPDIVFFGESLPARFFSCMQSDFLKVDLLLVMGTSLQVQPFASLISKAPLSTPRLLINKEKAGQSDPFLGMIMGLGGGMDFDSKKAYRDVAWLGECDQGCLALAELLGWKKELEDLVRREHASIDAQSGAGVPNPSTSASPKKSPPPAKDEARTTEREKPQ

B1: isocitrate dehydrogenase α subunit (enzyme, UniProt P50213 28-366)
chain: TGGVQTVTLIPGDGIGPEISAAVMKIFDAAKAPIQWEERNVTAIQGPGGKWMIPSEAKESMDKNKMGLKGPLKTPIAAGHPSMNLLLRKTFDLYANVRPCVSIEGYKTPYTDVNIVTIRENTEGEYSGIEHVIVDGVVQSIKLITEGASKRIAEFAFEYARNNHRSNVTAVHKANIMRMSDGLFLQKCREVAESCKDIKFNEMYLDTVCLNMVQDPSQFDVLVMPNLYGDILSDLCAGLIGGLGVTPSGNIGANGVAIFESVHGTAPDIAGKDMANPTALLLSAVMMLRHMGLFDHAARIEAACFATIKDGKSLTKDLGGNAKCSDFTEEICRRVKDLD

molecular target: T1, SIRT2 (isoform 1) tagged at its C-terminus with GFP; test: affinity purification with mass spectrometry; HeLa cells transfected with SIRT2-GFP or GFP alone, whole cell lysate in RIPA buffer, GFP-Trap agarose beads, elution with 200 mM glycine pH 2.5, LC-MS/MS; t-test against GFP alone (FDR 0.01, S0 2)

binding, binds:
B1

molecular target: T1, SIRT2 (isoform 1) tagged at its C-terminus with GFP; test: as above; remark: another data set of the same source

binding, binds:
CREB-binding protein (CBP) (from UniProt Q92793 1-2442), EP300 (from UniProt Q09472 1-2414), Exportin-1 (from UniProt O14980 1-1071), Transportin 1 (TNPO1) (from UniProt Q92973 1-898), isocitrate dehydrogenase β subunit (from UniProt O43837 35-385) (enzyme), α-tubulin (human (endogenous in HeLa))

No constants are given. Whether binding was seen depends on the method and setting. Binding seen in cells or lysates may run through a third protein. Here binding means that the protein was enriched with, or labelled near, the bait; the list need not be complete. Where a sequence is shown, tags or fusion partners need not be part of it.
